Experimental data taken from article PMC11489182.

Chains of the proteins cited; added tags and fusions are not shown.
UniProt P38936: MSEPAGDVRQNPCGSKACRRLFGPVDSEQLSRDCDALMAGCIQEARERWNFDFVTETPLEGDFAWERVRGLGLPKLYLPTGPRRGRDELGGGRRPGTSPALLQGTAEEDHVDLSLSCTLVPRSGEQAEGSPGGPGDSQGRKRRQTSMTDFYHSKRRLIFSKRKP

Target: T1, Flag-tagged full-length USP44 (ubiquitin-specific protease 44) (human) (UniProt Q9H0E7)
T1 sequence: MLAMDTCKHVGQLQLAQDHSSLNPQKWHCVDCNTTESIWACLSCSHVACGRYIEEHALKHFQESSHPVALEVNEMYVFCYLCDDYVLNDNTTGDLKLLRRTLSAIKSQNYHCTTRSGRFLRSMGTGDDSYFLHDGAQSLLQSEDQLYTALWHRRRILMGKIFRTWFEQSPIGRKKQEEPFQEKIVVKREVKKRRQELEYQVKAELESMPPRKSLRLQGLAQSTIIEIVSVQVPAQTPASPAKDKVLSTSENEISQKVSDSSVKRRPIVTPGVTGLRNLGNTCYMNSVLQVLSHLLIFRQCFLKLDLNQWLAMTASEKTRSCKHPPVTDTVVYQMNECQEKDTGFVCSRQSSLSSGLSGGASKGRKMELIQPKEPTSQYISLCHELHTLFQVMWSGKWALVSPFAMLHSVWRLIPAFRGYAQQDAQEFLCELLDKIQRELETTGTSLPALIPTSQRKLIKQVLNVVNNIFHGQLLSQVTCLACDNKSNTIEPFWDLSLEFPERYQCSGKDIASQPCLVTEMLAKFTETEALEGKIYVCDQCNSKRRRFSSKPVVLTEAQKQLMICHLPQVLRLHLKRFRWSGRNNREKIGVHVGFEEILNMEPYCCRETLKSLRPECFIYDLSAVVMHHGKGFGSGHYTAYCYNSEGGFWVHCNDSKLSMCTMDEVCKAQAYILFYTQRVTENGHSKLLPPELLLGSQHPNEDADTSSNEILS
Assay: affinity purification with mass spectrometry; co-IP of Flag-tagged USP44 from cell lysate, co-precipitating proteins identified by LC-MS/MS

endogenous p21 protein (from UniProt P38936 1-164)
binding: binds

Results are given in words; binding and its absence hold for the method and conditions named. Binding seen in cells or lysates may run through a third protein. Here binding means that the protein was enriched with, or labelled near, the bait; the list need not be complete. Where a sequence is shown, tags or fusion partners need not be part of it.
